Experimental data: PubChem BioAssay AID743454 (Peter MacCallum Cancer Centre, 2014)

Test: 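Knock-downs lowering viability or raising caspase 3/7 activity in vorinostat-treated resistant cells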 (primary screen)
Cells: human HCT116-VR colon cancer cells, selected for vorinostat resistance
Reagents: siRNA pool against human genes, 40 nM siRNA pool
Time to read-out: vorinostat for 24 h, read-out about 72 h after transfection
Challenge: vorinostat at 2.5 µM final
Measurement: 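Cell viability by CellTiter-Fluor and caspase 3/7 activity by luminescence, each scaled to mock wells per plate, duplicates averaged, then robust z-scored over all plates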
Direction: viability robust z-score: higher = more viable cells than screen typical; caspase robust z-score: higher = more caspase 3/7 activity than screen typical
Rule for the call: 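a knock-down is a hit when classed RV1 or RV2 for lowered viability, or CA1 or CA2 for caspase activation; those lethal without drug were dropped; hits were retested singly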
The whole screen tested about 18,000 reagents; shown is a random part of them. 450 of them (2.5%) count as active. 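Single biological run; no consistent viability z cut-off exists, so the class columns, not z-scores, define the calls.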 A number with no mark means an inactive call.

gene	viability hit class	caspase hit class	viability robust z-score	caspase robust z-score
SH3GLB1 (SH3 domain containing GRB2 like, endophilin B1)	no change	no change	-0.44	1.28
PIM2 (Pim-2 proto-oncogene, serine/threonine kinase)	no change	no change	-0.12	-1
POU2AF1 (POU class 2 homeobox associating factor 1)	no change	no change	1.91	0.28
CCDC120 (coiled-coil domain containing 120)	no change	no change	1.27	1.62
TCF25 (TCF25 ribosome quality control complex subunit)	no change	no change	-0.68	-0.85
ESX1 (ESX homeobox 1)	no change	no change	-0.34	0.65
PBX1 (PBX homeobox 1)	no change	no change	-0.26	0.13
FH (fumarate hydratase)	no change	no change	1.44	-0.62
ECHDC1 (ethylmalonyl-CoA decarboxylase 1)	no change	no change	0.64	-0.83
RBL2 (RB transcriptional corepressor like 2)	no change	no change	0.41	-0.34
ACACA (acetyl-CoA carboxylase alpha)	no change	no change	-0.55	0.31
DCAF12L2 (DDB1 and CUL4 associated factor 12 like 2)	no change	no change	0.75	-0.16
OR56B1 (olfactory receptor family 56 subfamily B member 1)	no change	no change	0.89	1.05
ANKRD20A5P (ankyrin repeat domain 20 family member A5, pseudogene)	no change	no change	-0.05	-0.98
USP22 (ubiquitin specific peptidase 22)	no change	no change	0.11	-1.08
DIAPH1 (diaphanous related formin 1)	no change	no change	1.46	0.28
OR2C1 (olfactory receptor family 2 subfamily C member 1)	no change	no change	0.5	-0.09
CITED1 (Cbp/p300 interacting transactivator with ED-rich tail 1)	no change	no change	-0.87	2.53
VAX2 (ventral anterior homeobox 2)	no change	no change	-0.02	2.25
SARDH (sarcosine dehydrogenase)	no change	no change	0.14	-1.3
TMCO5A (transmembrane and coiled-coil domains 5A)	no change	no change	-1.33	3.72
METTL2B (methyltransferase 2B, tRNA N3-cytidine)	no change	no change	-2.25	0.13
ALG12 (ALG12 alpha-1,6-mannosyltransferase)	no change	no change	0.54	0.1

3 entries from above, limited to “viability robust z-score”:
DCAF12L2 (DDB1 and CUL4 associated factor 12 like 2) = 0.75
OR56B1 (olfactory receptor family 56 subfamily B member 1) = 0.89
ANKRD20A5P (ankyrin repeat domain 20 family member A5, pseudogene) = -0.05
